For at least one compound, name, drawing or mass did not settle the structure.
System: hypotension induced by [Sar^9,Met(O2)^11 ] substance P
Experiment: Inhibitory effect on hypotension induced by [Sar^9,Met(O2)^11 ] substance P in anesthetized dogs
Assay type: in vivo

CC(C)Oc1cccc(CC(=O)N2CCC[C@](CC[N+]34CCC(c5ccccc5)(CC3)CC4)(c3ccc(Cl)c(Cl)c3)C2)c1 [compound A, (S)-1-{2-[3-(3,4-dichlorophenyl)-1-(3-iso-propoxyphenylacetyl)piperidin-3-yl]ethyl}-4-phenyl-1-azoniabicyclo[2.2.2]octane]
Effect on the arterial pressure (intraduodenal, 0.35 mg/kg, solution): makes it possible to re-establish the arterial pressure | Effect on the arterial pressure (intraduodenal, 0.35 mg/kg, suspension): no effect on the arterial pressure | Inhibitory effect on the hypotension induced by [Sar^9,Met(O2)^11 ] substance P (overall conclusion, solution vs other forms): manifests itself only when compound A is administered in solution | Effect on the arterial pressure (p.o., 1 mg/kg, pure in a gelatin capsule): no effect on the pressure | Effect on the arterial pressure (p.o., 1 mg/kg, solution): makes it possible to re-establish the arterial pressure | Effect on the arterial pressure (p.o., 3 mg/kg, pure in a gelatin capsule): small | Effect on the arterial pressure (p.o., 10 mg/kg, pure in a gelatin capsule): reaches a maximum
